Measurements published in publication PMC4982137, “Mycobacterium tuberculosis H37Ra: a surrogate for the expression of conserved, multimeric proteins of M.tb H37Rv” (Microbial Cell Factories, 2016).

Chains of the proteins cited; added tags and fusions are not shown.
UniProt P9WN83: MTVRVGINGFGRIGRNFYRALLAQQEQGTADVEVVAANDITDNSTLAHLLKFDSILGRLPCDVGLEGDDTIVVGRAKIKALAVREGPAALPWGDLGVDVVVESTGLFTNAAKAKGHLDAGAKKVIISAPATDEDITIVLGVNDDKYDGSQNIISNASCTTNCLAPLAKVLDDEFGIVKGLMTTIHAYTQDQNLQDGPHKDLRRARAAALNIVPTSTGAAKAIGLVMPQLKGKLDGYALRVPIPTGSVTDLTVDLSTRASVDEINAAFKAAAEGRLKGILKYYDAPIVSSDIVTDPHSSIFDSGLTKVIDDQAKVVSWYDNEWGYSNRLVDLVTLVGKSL
UniProt A0QWW2: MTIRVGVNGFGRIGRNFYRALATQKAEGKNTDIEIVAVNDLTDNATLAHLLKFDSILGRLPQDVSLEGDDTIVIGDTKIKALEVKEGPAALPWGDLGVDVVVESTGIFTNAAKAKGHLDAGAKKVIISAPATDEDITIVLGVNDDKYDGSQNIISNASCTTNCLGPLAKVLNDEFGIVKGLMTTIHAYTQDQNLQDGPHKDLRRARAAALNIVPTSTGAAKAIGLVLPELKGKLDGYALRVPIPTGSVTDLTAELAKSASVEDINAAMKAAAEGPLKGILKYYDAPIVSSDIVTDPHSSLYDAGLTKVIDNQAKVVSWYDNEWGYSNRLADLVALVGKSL

Molecular target: MS-GAPDH-H: recombinant M.tb H37Rv GAPDH with a C-terminal 8XHis tag, expressed in M. smegmatis (the (Mycobacterium tuberculosis H37Rv) (UniProt P9WN83))
Experiment: affinity purification with mass spectrometry

Substance: native M. smegmatis GAPDH (from UniProt A0QWW2 1-340) (enzyme)
- binding: binds

Results are given in words; binding and its absence hold for the method and conditions named. Binding seen in cells or lysates may run through a third protein. Here binding means that the protein was enriched with, or labelled near, the bait; the list need not be complete.
